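Assay of Toxoplasma gondii numbers, read through their beta-galactosidase reporter with a colour substrate. Compounds at 50 µM. Higher reads as fewer parasites (inferred from which compounds were picked for retests). About 18,000 compounds were tested under these conditions; 0.94% (about 170) showed 50% or more at least once.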

Each number is a percent effect as filed.
How 0% and 100% were set is not recorded. Most values in the screen are low, and negative values occur.
Compounds were drawn at random from those tested, without regard to their results.

| SMILES | effect |
|---|---|
| `NCc1ccc(CNC(=O)C2CCCCO2)cc1` (stereo not given) | 10.45% |
| `O=C(CC1CCCC1)NC1CCCc2[nH]c(=O)ccc21` (stereo not given) | -25.12% |
| `OCCOCCNCc1ccc(-c2ccc(F)cc2)o1` | -0.8921% |
| `CN(C)c1ccncc1N` | 10.26% |
| `Cc1cc(NC(=O)NC2CCN(S(C)(=O)=O)CC2)no1` | 12.13% |
| `CC(=O)N1CCCN(C(=O)Cc2ccccc2C)CC1` | 4.077% |
| `COC(=O)CNC(=O)CSc1nc(C)cc(C)c1C#N` | -7.157% |
| `COc1ccc(OCCN(C)CCO)cc1` | 8.008% |
| `CC(C)Sc1ccccc1NS(=O)(=O)N(C)C` | 99.92% |
| `CCCC(=O)Nc1ccc(N2CCN(C)CC2)cc1C` | 2.704% |
| `COc1ncc(C(=O)N[C@@H]2COCC[C@H]2O)nc1OC` | 2.729% |
| `CC(NC(=O)Cc1cccnc1)c1cn2ncsc2n1` (stereo not given) | -10.28% |
| `Cc1nc(C(N)c2ccc(Cl)cc2)no1` (stereo not given) | 0.568% |
| `Cc1n[nH]c(C)c1NC(=O)C(N)CC(C)C` (stereo not given) | -2.27% |
| `COc1ccc(NC(=O)CN)cc1Cl` | 1.653% |
| `CC(NC(=O)c1ccccc1)C(=O)NC(C)(C)C` (stereo not given) | -29.07% |
| `Cc1ccc(C(=O)NCc2ccccc2CO)c(=O)[nH]1` | 3.179% |
| `CN(C)[C@H]1CN(CCOc2ccccc2)C[C@@H]1O` | -13.78% |
| `O=C(CCC(F)(F)F)NCCNC1CC1` | -12.37% |
| `CC(CN)N(C)C(=O)c1ccc(Br)cc1` (stereo not given) | -5.849% |
| `COc1cccc(C(=O)Nc2ccnn2C(C)C)c1` | 5.916% |
| `CC(C)NCC(=O)NC(N)=O` | 1.214% |
| `C[C@@H](N)C(=O)OC(C)(C)C` | -11.41% |
| `Nc1nccnc1C(=O)NC1COc2ccccc2C1` (stereo not given) | -5.789% |
| `Cc1cc(F)ccc1C(=O)NCCNC(=O)N(C)C` | -7.17% |
| `Cc1cc(C(=O)OCc2cncs2)cc(O)n1` | 11.29% |
| `CCN(CC)C(=O)NCCCOC(C)C` | 9.513% |
| `CCSCCC(=O)N1CCC(c2nnc[nH]2)CC1` | 10.07% |
| `Cc1noc(C)c1CN1C[C@@H](F)C[C@H]1CN` | -40.93% |
| `Cc1ncc(C(=O)N[C@H]2CC[C@H](O)CC2)c(O)c1Br` | -7.477% |
| `CN(CC(N)=O)C(=O)c1ccc(-c2ccccc2F)s1` | 2.403% |
| `CC1CCC(NC(=O)CN2CCCS(=O)(=O)CC2)CC1` (stereo not given) | -0.7492% |
| `CSCCCN(C)C(=O)CN(C)S(C)(=O)=O` | -12.04% |
| `Cn1ccnc1CN1CCN(Cc2ccoc2)CC1` | -0.4841% |
| `Cn1nnc2c(N3CCCCC3)ncnc21` | -0.3233% |
| `CCN(CCN1CCCC1)C1CCNCC1` | -7.733% |
| `CC(C)c1cc(C(=O)NCCN(C)S(C)(=O)=O)no1` | -1.018% |
| `O=C(c1cc(C2CC2)on1)N1CCCN(C2CC2)CC1` | -2.942% |
| `CC1(C)CNC(=O)NC1=O` | 3.841% |
| `CCC(=O)N1CCN(C(=O)CC(C)(C)C)CC1` | 2.511% |
| `CC(C)(N)CNS(=O)(=O)c1ccc(F)c(Cl)c1` | -10.61% |
| `COCC(=O)NCc1ccccc1CN1CCCC1=O` | -3.786% |
| `CC(C)N1C[C@@H](C)C(=O)C[C@@H]1C` | 4.409% |
| `Cc1cc(=O)[nH]c(=O)n1-c1ccc(F)cc1` | -0.1867% |
| `Cc1noc(C)c1CCC(=O)N1C[C@@H](C)[C@@](C)(O)C1` | 2.573% |
| `COc1cc(C)c(NC(=O)C(C)C)cc1OC` | -2.232% |
| `CCc1nnc(CNC(=O)[C@@H](N)Cc2ccccc2)s1` | -5.882% |
| `Cc1nnc(CN2CCC(NC(=O)C3CC3)CC2)o1` | 0.4398% |
| `CCC(CNC(=O)c1ccco1)N1CCCC1` (stereo not given) | -1.518% |

For reference, 6 entries once more:

SMILES	effect
O=C(CC1CCCC1)NC1CCCc2[nH]c(=O)ccc21 (stereo not given)	-25.12%
CCSCCC(=O)N1CCC(c2nnc[nH]2)CC1	10.07%
CC(C)Sc1ccccc1NS(=O)(=O)N(C)C	99.92%
COc1cccc(C(=O)Nc2ccnn2C(C)C)c1	5.916%
CC(CN)N(C)C(=O)c1ccc(Br)cc1 (stereo not given)	-5.849%
CN(C)[C@H]1CN(CCOc2ccccc2)C[C@@H]1O	-13.78%

The values are deposited in ChEMBL (CHEMBL3988442, “University of Dundee, Small-Polar-MMV Screening Library” (2021)).